Measured values: patent publication US20030225152A1, “3-(Arylamino)methylene-1, 3-dihydro-2h-indol-2-ones as kinase inhibitors” (priority 2001, published 2003)
Some of these results come from one statement about several compounds together. For some assays here: At least one read-out could not be matched to a standard name with certainty.

Amino acid sequences for entries named in this document (tags omitted). Residues count along the entry.
UniProt P35968, 786-1356: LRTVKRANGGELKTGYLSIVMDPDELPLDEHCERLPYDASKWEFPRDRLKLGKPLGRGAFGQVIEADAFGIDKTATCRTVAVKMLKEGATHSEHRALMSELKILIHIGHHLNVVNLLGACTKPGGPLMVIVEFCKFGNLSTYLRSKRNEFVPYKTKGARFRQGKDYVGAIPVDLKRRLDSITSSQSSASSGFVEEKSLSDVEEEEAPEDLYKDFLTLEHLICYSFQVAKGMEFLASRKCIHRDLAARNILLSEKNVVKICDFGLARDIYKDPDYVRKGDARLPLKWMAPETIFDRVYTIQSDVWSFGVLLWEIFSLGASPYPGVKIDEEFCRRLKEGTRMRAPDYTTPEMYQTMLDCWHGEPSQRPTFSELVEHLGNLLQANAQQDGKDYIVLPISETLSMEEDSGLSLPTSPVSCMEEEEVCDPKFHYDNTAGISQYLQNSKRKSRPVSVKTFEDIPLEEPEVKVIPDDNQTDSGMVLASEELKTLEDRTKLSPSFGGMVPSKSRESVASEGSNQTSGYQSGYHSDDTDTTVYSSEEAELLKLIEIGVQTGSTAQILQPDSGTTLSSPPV

Tests used:
[1] = tested on: VEGF induced increases in intracellular calcium levels in HUVEC (human umbilical vein endothelial cells); test: VEGF Stimulated Ca++ Signal in vitro (FLIPR); type: cell-based; conditions: either-or criterion summarising Table 2
Method: Cells were loaded with calcium indicator Fluo-4 for 45 minutes at 37° C. Cells were washed 4 times (Original Cell Wash, Labsystems) to remove extracellular dye. […] Data were generated by determining max-min fluorescence levels for unstimulated, stimulated, and drug treated samples. IC50 values for test compounds were calculated from % inhibition of VEGF stimulated responses in the absence of inhibitor.

[2] = tested on: VEGF-induced EBD extravasation; test: VEGF-induced Dermal Extravasation in Guinea Pig (Miles Assay); type: in vivo; conditions: summary of Tables 2, 3 and 4; oral administration
Method: VEGF-induced Dermal Extravasation in Guinea Pig (Miles Assay). Male Hartley guinea pigs (300-600 g) were anesthetized with isofluorane, sheared, and given a single dose of drug or the respective vehicle. The guinea pigs were dosed orally unless indicated otherwise in Table 3. Ten minutes prior to the end of drug treatment, guinea pigs were anesthetized with isofluorane, and 0.5% Evans blue dye (EBD) in PBS (13-15 mg/kg dose of EBD) was injected intravenously. After 5 minutes, triplicate intradermal injections of 100 ng rhVEGF165 in 100 μl PBS and of 100 μl PBS alone were administered on the flank. After 20 minutes, each animal was euthanized with Pentosol, and the skin containing the intradermal injection sites was removed for image analysis.
Using an analog video camera coupled to a PC, an image of each trans-illuminated skin sample was captured, and the integrated optical density of each injection site was measured using ImagePro 4. For each skin sample, the difference between the mean optical density of the VEGF sites and mean optical density of the PBS sites is the measure of VEGF-induced EBD extravasation in that animal. These measured values were averaged per study group to determine the mean VEGF-induced EBD extravasation for each experimental condition, and the group means were then compared to assess inhibition of VEGF-induced EBD extravasation in the drug-treated groups relative to the vehicle-treated controls.
To determine the dose required for 50% inhibition (ID50), the percent inhibition data was plotted as a function of oral dose, using the ‘best-fit’ analysis within MicroSoft Excel software. The ID50 value was verified visually by using the plotted data (horizontal line from 50% y value, at intersection with best-fit line drop vertical line to x axis (dose)).

[3] = biological target: T1, cytoplasmic domain of the human VEGF receptor (VEGFR-2) (Homo sapiens, UniProt P35968); test: KDR Assay; type: biochemical; conditions: His-VEGFR-2; 3.6 μM ATP
T1 construct: The cytoplasmic domain of the human VEGF receptor (VEGFR-2) was expressed as a Histidine-tagged fusion protein; Histidine tag

Compound	% inhibition of VEGF or VEGF IC50 in either the VEGF stimulated Ca++ signal assay or KDR assay [1]	in-vivo activity [2]	IC50 [3] [µM]
O=C1Nc2ccccc2C1=CNc1ccc(N2CCOCC2)cc1 [Example 40]	either % inhibition of VEGF>79% or VEGIF IC50<1.0 μM	significant in-vivo activity	≤ 1
CN(C)c1ccc(NC=C2C(=O)Nc3ccccc32)cc1 [Example 156, 3-[(4-Dimethylamino-phenylamino)-methylene]-1,3-dihydro-indol-2-one]	either % inhibition of VEGF>79% or VEGIF IC50<1.0 μM	significant in-vivo activity	≤ 1
CN1CCN(c2ccc(NC=C3C(=O)Nc4ccccc43)cc2)CC1 [Example 157, 3-{[4-(4-Methyl-piperazin-1-yl)-phenylamino]-methylenel}-1,3-dihydro-indol-2-one]	either % inhibition of VEGF>79% or VEGIF IC50<1.0 μM	significant in-vivo activity	≤ 1
CC1CN(c2ccc(NC=C3C(=O)Nc4ccccc43)cc2)CC(C)O1 (centres unmarked) [Example 159, 3-{[4-(2,6-Dimethyl-morpholin-4-yl)-phenylamino]-methylene}-1,3-dihydro-indol-2-one]	either % inhibition of VEGF>79% or VEGIF IC50<1.0 μM	significant in-vivo activity	≤ 1
O=C1Nc2ccc(F)cc2C1=CNc1ccc(N2CCOCC2)cc1 [Example 167, 5-Fluoro-3-[(4-morpholin-4-yl-phenylamino)-methylene]-1,3-dihydro-indol-2-one]	either % inhibition of VEGF>79% or VEGIF IC50<1.0 μM	significant in-vivo activity	≤ 1
O=C1Nc2ccccc2C1=CNc1ccc(CN2CCOCC2)cc1 [Example 290, 3-[(4-Morpholin-4-ylmethyl-phenylamino)-methylene]-1,3-dihydro-indol-2-one]	either % inhibition of VEGF>79% or VEGIF IC50<1.0 μM		≤ 1
O=C1Nc2ccc(Cl)cc2C1=CNc1ccc(CN2CCOCC2)cc1 [Example 291, 5-Chloro-3-[(4-morpholin-4-ylmethyl-phenylamino)-methylene]-1,3-dihydro-indol-2-one]	either % inhibition of VEGF>79% or VEGIF IC50<1.0 μM		≤ 1
Cc1cccc2c1C(=CNc1ccc(CN3CCOCC3)cc1)C(=O)N2 [Example 292, 4-Methyl-3-[(4-morpholin-4-ylmethyl-phenylamino)-methylene]-1,3-dihydro-indol-2-one]	either % inhibition of VEGF>79% or VEGIF IC50<1.0 μM		≤ 1
O=C1Nc2cccc(F)c2C1=CNc1ccc(CN2CCOCC2)cc1 [Example 293, 4-Fluoro-3-[(4-morpholin-4-ylmethyl-phenylamino)-methylene]-1,3-dihydro-indol-2-one]	either % inhibition of VEGF>79% or VEGIF IC50<1.0 μM		≤ 1
O=C1Nc2ccc(F)cc2C1=CNc1ccc(CN2CCOCC2)cc1 [Example 294, 5-Fluoro-3-[(4-morpholin-4-ylmethyl-phenylamino)-methylene]-1,3-dihydro-indol-2-one]	either % inhibition of VEGF>79% or VEGIF IC50<1.0 μM		≤ 1
O=C1Nc2cc(F)ccc2C1=CNc1ccc(CN2CCOCC2)cc1 [Example 295, 6-Fluoro-3-[(4-morpholin-4-ylmethyl-phenylamino)-methylene]-1,3-dihydro-indol-2-one]	either % inhibition of VEGF>79% or VEGIF IC50<1.0 μM		≤ 1
Cc1cccc2c1C(=CNc1ccc(NCCCN3CCOCC3)cc1)C(=O)N2 [Example 296, 4-Methyl-3-{[4-(3-morpholin-4-yl-propylamino)-phenylamino]-methylene}-1,3-dihydro-indol-2-one]	either % inhibition of VEGF>79% or VEGIF IC50<1.0 μM		≤ 1
O=C1Nc2ccccc2C1=CNc1ccc(NCCCN2CCOCC2)cc1 [Example 297, 3-{[4-(3-Morpholin-4-yl-propylamino)-phenylamino]-methylene}-1,3-dihydro-indol-2-one]	either % inhibition of VEGF>79% or VEGIF IC50<1.0 μM		≤ 1
O=C1Nc2cc(F)ccc2C1=CNc1ccc(NCCCN2CCOCC2)cc1 [Example 298, 6-Fluoro-3-{[4-(3-morpholin-4-yl-propylamino)-phenylamino]-methylene}-1,3-dihydro-indol-2-one]	either % inhibition of VEGF>79% or VEGIF IC50<1.0 μM		≤ 1
O=C1Nc2ccc(Cl)cc2C1=CNc1ccc(NCCCN2CCOCC2)cc1 [Example 299, 5-Chloro-3-{[4-(3-morpholin-4-yl-propylamino)-phenylamino]-methylene}-1,3-dihydro-indol-2-one]	either % inhibition of VEGF>79% or VEGIF IC50<1.0 μM		≤ 1
O=C1Nc2ccc(F)cc2C1=CNc1ccc(NCCCN2CCOCC2)cc1 [Example 300, 5-Fluoro-3-{[4-(3-morpholin-4-yl-propylamino)-phenylamino]-methylene}-1,3-dihydro-indol-2-one]	either % inhibition of VEGF>79% or VEGIF IC50<1.0 μM		≤ 1
O=C1Nc2cccc(F)c2C1=CNc1ccc(NCCCN2CCOCC2)cc1 [Example 301, 4-Fluoro-3-{[4-(3-morpholin-4-yl-propylamino)-phenylamino]-methylene}-1,3-dihydro-indol-2-one]	either % inhibition of VEGF>79% or VEGIF IC50<1.0 μM		≤ 1
O=C1Nc2ccccc2C1=CNc1ccc(OCCCN2CCC(F)C2)cc1 (centres unmarked) [Example 305, 3-({4-[3-(3-Fluoro-pyrrolidin-1-yl)-propoxy]-phenylamino}-methylene)-1,3-dihydro-indol-2-one]	either % inhibition of VEGF>79% or VEGIF IC50<1.0 μM		≤ 1
O=C1Nc2ccccc2C1=CNc1ccc(CCN2CCOCC2)cc1 [Example 306, 3-{[4-(2-Morpholin-4-yl-ethyl)-phenylamino]-methylene}-1,3-dihydro-indol-2-one]	either % inhibition of VEGF>79% or VEGIF IC50<1.0 μM		≤ 1
O=C1Nc2ccc(Cl)cc2C1=CNc1ccc(CCN2CCOCC2)cc1 [Example 307, 5-Chloro-3-{[4-(2-morpholin-4-yl-ethyl)-phenylamino]-methylene}-1,3-dihydro-indol-2-one]	either % inhibition of VEGF>79% or VEGIF IC50<1.0 μM		≤ 1
Cc1cccc2c1C(=CNc1ccc(CCN3CCOCC3)cc1)C(=O)N2 [Example 308, 4-Methyl-3-{[4-(2-morpholin-4-yl-ethyl)-phenylamino]-methylene}-1,3-dihydro-indol-2-one]	either % inhibition of VEGF>79% or VEGIF IC50<1.0 μM		≤ 1
O=C1Nc2cccc(F)c2C1=CNc1ccc(CCN2CCOCC2)cc1 [Example 309, 4-Fluoro-3-{[4-(2-morpholin-4-yl-ethyl)-phenylamino]-methylene}-1,3-dihydro-indol-2-one]	either % inhibition of VEGF>79% or VEGIF IC50<1.0 μM		≤ 1
O=C1Nc2ccc(F)cc2C1=CNc1ccc(CCN2CCOCC2)cc1 [Example 310, 5-Fluoro-3-{[4-(2-morpholin-4-yl-ethyl)-phenylamino]-methylene}-1,3-dihydro-indol-2-one]	either % inhibition of VEGF>79% or VEGIF IC50<1.0 μM		≤ 1
O=C1Nc2cc(F)ccc2C1=CNc1ccc(CCN2CCOCC2)cc1 [Example 311, 6-Fluoro-3-{[4-(2-morpholin-4-yl-ethyl)-phenylamino]-methylene}-1,3-dihydro-indol-2-one]	either % inhibition of VEGF>79% or VEGIF IC50<1.0 μM		≤ 1
